Source: patent EP0204788B1, “NEW HYPOCALCEMIC POLYPEPTIDES, PREPARATION THEREOF AND DRUGS CONTAINING THESE ACTIVE PRINCIPLES” (MILHAUD, Gérard, priority 1984, dated 1989)
Not every detail of the peptide structures is certain; ends, links or a residue may be inferred. Bridge positions count the residues as written; N and C are the ends. Peptide text beside a SMILES is read from it.

Test: Hypocalcemic activity in the fasted male rat (fall in calcemia, compared with Research Standard B)
Format: in vivo
Conditions: male rat 100-120 g, fasted 16 h, fall in calcemia measured one hour after intravenous injection, peptide diluted in sodium acetate buffer 0,1 N pH 6 with 0,1 % albumin

Question: For `CC(C)C[C@H](NC(=O)[C@H](CCCCN)NC(=O)CNC(=O)[C@H](CC(C)C)NC(=O)[C@@H](NC(=O)[C@@H]1CSSC[C@H](N)C(=O)N[C@@H](C)C(=O)N[C@@H](CO)C(=O)N[C@@H](CC(C)C)C(=O)N[C@@H](CO)C(=O)N[C@@H]([C@@H](C)O)C(=O)N1)C(C)C)C(=O)N[C@@H](CO)C(=O)N[C@@H](CCC(N)=O)C(=O)N[C@@H](CCC(=O)O)C(=O)N[C@@H](CC(C)C)C(=O)N[C@@H](Cc1c[nH]cn1)C(=O)N[C@@H](CCCCN)C(=O)N[C@@H](CC(C)C)C(=O)N[C@@H](CCC(N)=O)C(=O)N[C@H](C(=O)N[C@@H](Cc1ccc(O)cc1)C(=O)N1CCC[C@H]1C(=O)N[C@@H](CCCNC(=N)N)C(=O)N[C@H](C(=O)N[C@@H](CC(=O)O)C(=O)N[C@H](C(=O)NCC(=O)N[C@@H](C)C(=O)NCC(=O)N[C@H](C(=O)N1CCC[C@H]1C(N)=O)[C@@H](C)O)C(C)C)[C@@H](C)O)[C@@H](C)O` [IIA] (H-CASLSTCVLGKLSQELHKLQTYPRTDVGAGTP-NH2; disulfide 1-7), which activité biologique is on record?
Answer: The activité biologique was > 4 000 unités MRC par mg.
